Measured values from the supplement of paper PMC10849652.
Some of the results follow.

Amino acid sequences for entries named in this document (tags omitted). A change or cut given only in a name is not applied to a line headed by its entry.
UniProt P08648, whole entry, looked up: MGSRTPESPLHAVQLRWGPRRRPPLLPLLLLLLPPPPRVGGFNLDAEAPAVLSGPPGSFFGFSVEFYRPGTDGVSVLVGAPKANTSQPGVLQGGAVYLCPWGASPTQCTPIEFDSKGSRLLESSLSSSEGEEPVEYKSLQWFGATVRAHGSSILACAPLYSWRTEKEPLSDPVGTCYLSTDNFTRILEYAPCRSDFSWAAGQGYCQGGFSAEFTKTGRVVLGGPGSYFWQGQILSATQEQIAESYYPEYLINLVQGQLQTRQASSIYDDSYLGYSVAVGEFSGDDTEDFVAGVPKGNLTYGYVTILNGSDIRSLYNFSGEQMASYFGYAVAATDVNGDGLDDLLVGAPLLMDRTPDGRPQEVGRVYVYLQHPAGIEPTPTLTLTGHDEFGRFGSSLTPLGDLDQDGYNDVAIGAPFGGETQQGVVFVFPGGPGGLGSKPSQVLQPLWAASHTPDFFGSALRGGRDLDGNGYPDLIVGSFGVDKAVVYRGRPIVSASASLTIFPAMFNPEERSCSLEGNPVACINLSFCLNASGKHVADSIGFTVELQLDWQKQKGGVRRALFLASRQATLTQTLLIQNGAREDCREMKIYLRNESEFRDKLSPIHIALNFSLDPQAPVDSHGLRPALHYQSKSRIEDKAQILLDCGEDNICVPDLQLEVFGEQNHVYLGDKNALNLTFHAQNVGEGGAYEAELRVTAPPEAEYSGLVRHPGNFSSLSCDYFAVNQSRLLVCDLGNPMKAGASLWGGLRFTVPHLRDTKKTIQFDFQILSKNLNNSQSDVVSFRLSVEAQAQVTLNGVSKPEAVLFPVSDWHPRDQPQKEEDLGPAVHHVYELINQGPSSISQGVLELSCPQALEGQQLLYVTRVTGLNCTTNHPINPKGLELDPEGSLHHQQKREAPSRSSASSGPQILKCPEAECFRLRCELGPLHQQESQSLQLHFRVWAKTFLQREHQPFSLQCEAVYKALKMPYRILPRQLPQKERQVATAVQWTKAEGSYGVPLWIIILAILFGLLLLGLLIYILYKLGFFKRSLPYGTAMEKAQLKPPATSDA
UniProt P17181: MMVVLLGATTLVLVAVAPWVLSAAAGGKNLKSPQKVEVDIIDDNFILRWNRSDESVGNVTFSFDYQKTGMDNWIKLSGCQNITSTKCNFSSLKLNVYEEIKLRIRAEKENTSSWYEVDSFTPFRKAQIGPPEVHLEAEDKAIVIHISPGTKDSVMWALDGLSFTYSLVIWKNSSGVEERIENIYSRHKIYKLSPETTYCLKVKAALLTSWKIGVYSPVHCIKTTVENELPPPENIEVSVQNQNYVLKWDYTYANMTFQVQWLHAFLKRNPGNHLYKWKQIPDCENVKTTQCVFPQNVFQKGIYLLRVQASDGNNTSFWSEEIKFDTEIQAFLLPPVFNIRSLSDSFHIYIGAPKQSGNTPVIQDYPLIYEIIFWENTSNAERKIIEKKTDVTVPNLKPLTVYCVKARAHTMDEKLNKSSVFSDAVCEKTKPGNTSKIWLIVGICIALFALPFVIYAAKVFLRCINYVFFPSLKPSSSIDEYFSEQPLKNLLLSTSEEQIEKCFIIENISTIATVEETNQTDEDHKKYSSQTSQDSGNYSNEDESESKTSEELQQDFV
UniProt O14732: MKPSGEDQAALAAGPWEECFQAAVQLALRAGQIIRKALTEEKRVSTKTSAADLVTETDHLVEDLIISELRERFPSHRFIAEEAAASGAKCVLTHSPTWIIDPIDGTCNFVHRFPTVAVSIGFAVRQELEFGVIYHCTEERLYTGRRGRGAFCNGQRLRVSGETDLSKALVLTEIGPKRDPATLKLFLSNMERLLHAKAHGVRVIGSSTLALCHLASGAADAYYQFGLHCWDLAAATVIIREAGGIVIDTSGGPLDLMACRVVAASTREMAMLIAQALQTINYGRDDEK
UniProt Q96LB3: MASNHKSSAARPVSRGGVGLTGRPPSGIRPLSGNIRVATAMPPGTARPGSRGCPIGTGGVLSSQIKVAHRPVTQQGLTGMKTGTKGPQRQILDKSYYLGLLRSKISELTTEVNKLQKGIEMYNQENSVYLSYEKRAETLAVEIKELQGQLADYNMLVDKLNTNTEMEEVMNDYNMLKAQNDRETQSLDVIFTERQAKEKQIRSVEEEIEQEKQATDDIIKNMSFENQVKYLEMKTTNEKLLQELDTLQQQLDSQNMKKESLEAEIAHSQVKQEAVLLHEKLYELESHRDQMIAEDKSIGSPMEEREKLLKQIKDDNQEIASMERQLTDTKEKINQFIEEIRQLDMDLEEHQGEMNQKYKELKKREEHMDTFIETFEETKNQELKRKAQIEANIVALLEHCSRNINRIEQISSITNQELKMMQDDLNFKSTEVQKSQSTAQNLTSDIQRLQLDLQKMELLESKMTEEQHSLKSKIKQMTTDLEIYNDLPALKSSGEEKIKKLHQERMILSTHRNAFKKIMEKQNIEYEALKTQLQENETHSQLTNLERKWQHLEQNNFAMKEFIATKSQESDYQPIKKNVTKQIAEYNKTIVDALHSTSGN
UniProt O14920: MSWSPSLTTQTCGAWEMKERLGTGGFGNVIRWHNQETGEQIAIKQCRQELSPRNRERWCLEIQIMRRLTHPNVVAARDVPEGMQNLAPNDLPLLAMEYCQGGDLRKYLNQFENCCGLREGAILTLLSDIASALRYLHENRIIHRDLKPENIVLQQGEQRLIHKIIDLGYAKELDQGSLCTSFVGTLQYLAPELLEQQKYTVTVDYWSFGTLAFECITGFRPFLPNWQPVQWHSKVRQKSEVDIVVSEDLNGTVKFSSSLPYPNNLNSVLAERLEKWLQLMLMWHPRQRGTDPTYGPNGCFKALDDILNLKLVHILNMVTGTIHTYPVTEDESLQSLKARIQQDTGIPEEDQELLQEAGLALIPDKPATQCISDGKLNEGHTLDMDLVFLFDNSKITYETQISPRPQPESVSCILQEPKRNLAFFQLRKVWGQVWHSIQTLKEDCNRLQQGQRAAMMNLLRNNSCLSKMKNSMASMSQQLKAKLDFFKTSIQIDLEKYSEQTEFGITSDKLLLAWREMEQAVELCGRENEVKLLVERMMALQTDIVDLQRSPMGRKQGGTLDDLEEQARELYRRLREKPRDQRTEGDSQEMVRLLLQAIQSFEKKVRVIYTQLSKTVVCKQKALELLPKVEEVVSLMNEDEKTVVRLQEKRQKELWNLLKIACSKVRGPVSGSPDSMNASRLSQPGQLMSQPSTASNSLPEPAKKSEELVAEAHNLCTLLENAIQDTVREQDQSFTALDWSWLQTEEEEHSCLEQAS
UniProt Q9Y6M1: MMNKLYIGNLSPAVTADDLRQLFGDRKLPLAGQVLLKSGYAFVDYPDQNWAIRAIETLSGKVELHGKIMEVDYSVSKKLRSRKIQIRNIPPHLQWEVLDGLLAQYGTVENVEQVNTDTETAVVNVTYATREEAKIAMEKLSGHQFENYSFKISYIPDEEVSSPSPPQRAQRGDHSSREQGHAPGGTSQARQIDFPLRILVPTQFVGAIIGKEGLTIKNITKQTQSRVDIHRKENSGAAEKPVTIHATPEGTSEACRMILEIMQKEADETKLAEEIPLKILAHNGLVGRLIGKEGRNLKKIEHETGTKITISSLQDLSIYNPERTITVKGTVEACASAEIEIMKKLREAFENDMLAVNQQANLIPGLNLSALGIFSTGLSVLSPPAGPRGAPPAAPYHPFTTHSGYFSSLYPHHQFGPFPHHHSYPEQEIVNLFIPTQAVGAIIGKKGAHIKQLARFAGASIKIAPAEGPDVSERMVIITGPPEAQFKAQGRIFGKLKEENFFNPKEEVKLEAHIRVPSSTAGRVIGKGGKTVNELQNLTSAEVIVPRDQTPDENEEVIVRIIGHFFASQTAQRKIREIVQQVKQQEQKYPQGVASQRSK
UniProt Q12906, whole entry, looked up: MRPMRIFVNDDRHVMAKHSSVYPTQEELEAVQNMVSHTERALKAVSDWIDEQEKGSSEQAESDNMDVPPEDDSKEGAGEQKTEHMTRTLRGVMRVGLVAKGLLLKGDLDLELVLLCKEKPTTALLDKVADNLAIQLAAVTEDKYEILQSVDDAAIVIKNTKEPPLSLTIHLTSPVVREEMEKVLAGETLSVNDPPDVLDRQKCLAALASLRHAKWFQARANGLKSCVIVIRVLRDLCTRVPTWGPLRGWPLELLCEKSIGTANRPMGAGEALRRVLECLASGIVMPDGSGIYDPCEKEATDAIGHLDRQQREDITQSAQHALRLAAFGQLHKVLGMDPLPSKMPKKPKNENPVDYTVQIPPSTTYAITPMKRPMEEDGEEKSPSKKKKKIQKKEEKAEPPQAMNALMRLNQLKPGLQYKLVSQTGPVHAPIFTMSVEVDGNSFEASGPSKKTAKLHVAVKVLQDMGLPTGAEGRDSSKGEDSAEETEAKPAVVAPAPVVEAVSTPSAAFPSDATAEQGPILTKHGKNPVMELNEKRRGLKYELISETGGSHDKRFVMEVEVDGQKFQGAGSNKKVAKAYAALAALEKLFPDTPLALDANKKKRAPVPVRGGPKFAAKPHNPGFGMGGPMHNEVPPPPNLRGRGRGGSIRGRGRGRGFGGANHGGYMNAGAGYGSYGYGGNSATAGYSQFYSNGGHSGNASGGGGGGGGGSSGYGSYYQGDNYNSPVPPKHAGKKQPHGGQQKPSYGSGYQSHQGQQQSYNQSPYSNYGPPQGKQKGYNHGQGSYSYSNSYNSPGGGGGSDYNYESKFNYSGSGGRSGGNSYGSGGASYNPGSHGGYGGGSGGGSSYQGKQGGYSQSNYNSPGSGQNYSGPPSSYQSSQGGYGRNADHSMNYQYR
UniProt P19823: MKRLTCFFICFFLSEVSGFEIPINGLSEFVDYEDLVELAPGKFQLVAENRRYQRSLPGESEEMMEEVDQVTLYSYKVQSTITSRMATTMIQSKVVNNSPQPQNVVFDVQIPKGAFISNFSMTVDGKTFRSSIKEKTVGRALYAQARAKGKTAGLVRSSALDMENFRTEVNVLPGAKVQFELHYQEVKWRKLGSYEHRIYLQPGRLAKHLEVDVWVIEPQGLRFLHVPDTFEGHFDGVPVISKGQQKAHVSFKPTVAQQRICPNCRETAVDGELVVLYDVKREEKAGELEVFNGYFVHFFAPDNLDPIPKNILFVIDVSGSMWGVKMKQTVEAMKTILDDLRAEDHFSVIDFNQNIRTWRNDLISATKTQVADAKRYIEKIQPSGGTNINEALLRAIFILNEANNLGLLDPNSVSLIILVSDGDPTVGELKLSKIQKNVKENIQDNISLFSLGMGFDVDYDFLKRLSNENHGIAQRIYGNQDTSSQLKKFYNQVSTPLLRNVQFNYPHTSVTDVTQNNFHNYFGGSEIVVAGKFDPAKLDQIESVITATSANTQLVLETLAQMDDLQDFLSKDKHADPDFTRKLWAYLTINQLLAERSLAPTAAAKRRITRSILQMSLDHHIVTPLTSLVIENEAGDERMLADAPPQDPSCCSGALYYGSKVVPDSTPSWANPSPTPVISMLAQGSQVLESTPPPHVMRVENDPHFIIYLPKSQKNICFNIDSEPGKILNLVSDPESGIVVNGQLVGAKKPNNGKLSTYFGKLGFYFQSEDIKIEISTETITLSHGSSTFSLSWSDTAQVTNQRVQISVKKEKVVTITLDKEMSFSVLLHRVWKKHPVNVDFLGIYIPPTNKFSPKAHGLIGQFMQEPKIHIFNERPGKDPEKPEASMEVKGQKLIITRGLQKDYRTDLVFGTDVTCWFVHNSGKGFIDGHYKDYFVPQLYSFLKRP
UniProt Q9NV31: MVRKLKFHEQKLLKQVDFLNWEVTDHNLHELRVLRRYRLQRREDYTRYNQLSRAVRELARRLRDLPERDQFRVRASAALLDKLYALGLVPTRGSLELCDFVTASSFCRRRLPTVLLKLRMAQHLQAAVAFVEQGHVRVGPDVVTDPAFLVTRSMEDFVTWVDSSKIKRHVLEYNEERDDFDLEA

What was measured:
Experiment in all cases: log2 fold change, soluble protein after heating vs DMSO (PISA); higher = thermal stabilisation; K562 cells, 10 uM, 30 min; active = over 0.2 and 3.5 SD of the protein, either way, in both replicates (recomputed)
[1] = compound: C1=CC=C(C=C1)[C@H](COC2=CC3=C(C=C2)NC(=O)N3)NC(=O)C4=CC=CN(C4=O)CC5=CC(=C(C=C5)F)F
In short: (§1)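 Soluble protein was defined as the supernatant after 21,000xg for 90 min. It came from K562 cells at 2×10^6 cells/mL given 10 μM compound for 30 min, heated in aliquots for 3 min across 48°C-58°C, pooled, and extracted in PBS with 0.5% NP-40 at 4°C, and was quantified by TMTpro 16plex LC-MS/MS with equalised channel sums. Thermal stability against control samples, from duplicates, is reported as log2 fold change.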

[2] = compound: CC1=C(SC2=C1C(=N[C@H](C3=NN=C(N32)C)CC(=O)N)C4=CC=C(C=C4)Cl)C
In short: as §1

[3] = compound: CC1=C2C(=CC=C1)N=C(N(C2=O)C3=CC=CC=C3C)CN4C=NC5=C(N=CN=C54)N
In short: as §1

[4] = compound: Cc1sc2c(c1C)C(c1ccc(Cl)cc1)=N[C@@H](CC(=O)OC(C)(C)C)c1nnc(C)n1-2
In short: as §1

[5] = compound: c1ccc([C@@H]2C[C@H]2NC2CCNCC2)cc1
In short: as §1

Measured: log2 fold change

ITGA5 (UniProt P08648)
inactive: [1] 0.005 | [2] 0.069 | [3] 0.016 | [4] -0.024 | [5] 0.026

IFNAR1 (UniProt P17181)
inactive: [1] 0.035 | [2] 0.133 | [3] 0.08 | [4] -0.065 | [5] -0.053

IMPA2 (UniProt O14732)
inactive: [1] -0.018 | [2] -0.052 | [3] -0.05 | [4] -0.212 | [5] -0.071

IFT74 (UniProt Q96LB3)
inactive: [1] 0.134 | [2] 0.11 | [3] 0.163 | [4] 0.003 | [5] -0.069

IKBKB (UniProt O14920)
inactive: [1] 0.1 | [2] -0.32 | [3] 0.34 | [4] 0.108 | [5] -0.081

IGF2BP2 (UniProt Q9Y6M1)
inactive: [1] 0.122 | [2] -0.271 | [3] -0.038 | [4] 0.25 | [5] 0.019

ILF3 isoform 7 (UniProt Q12906)
inactive: [1] 0.038 | [2] -0.061 | [3] -0.126 | [4] 0.194 | [5] 0.028

ITIH2 (UniProt P19823)
inactive: [1] -0.02 | [2] -0.042 | [3] 0.056 | [4] 0.07 | [5] 0.11

IMP3 (UniProt Q9NV31)
inactive: [1] 0.199 | [2] 0.033 | [3] 0.17 | [4] 0.029 | [5] -0.07
